Reference: US6387902B1, “Phenazine compounds, methods and pharmaceutical compositions for inhibiting PARP” (Guilford Pharmaceuticals, Inc., priority 1998, dated 2002)

System: male Long-Evans rats
Test: Neuroprotective effect of DPQ on focal cerebral ischemia (MCA cauterization with bilateral CCA occlusion 90 min)
Assay type: in vivo, rat
Settings: laser Doppler, control 20.8±7.7

Question: Which “relative blood flow in the right parietal cortex during occlusion” value (shortened to “relative blood flow”) (5 mg/kg) does the source give for `O=C1NCCc2c(OCCCCN3CCCCC3)cccc21` [DPQ, 3,4-dihydro-5-[4-(1-piperidinyl)-butoxy]-1(2H)-isoquinolinone] here?
Answer: 18.7±7.4 % of the baseline

Question: What about the “relative blood flow” value (10 mg/kg) of the same compound?
Answer: 21.4±7.7 % of the baseline

Question: What about the “relative blood flow” value (40 mg/kg) of the same compound?
Answer: 19.3±11.2 % of the baseline
